Data from PubChem BioAssay AID602346 (Broad Institute, 2012).
Hit rate of the full screen: of about 340,000 compounds, about 1,200 (0.35%) were called active. Inconclusive results, whose numbers are uncertain, are shown with a selection of clear calls. Cut-off read from the data, not from the text of the source: active = inhibition above about 50% (passing the limit was not always enough); inconclusive = no clear call, values can overlap the other calls; inactive = below about 31%.

Experiment: blockers of Vif multimerization in cells – imaging, HEK293T, single point, primary screen (AID 602346)
Conditions: Vif self-association by quenched fluorescence, 24 h, at 7.49 µM, active compounds read high

SMILES | inhibition
CC1CC/C(=C\c2ccc3c(c2)OCO3)C(=O)/C1=C/c1ccc2c(c1)OCO2 (stereo not drawn) | inactive: 3.49%
N#CC1(NC(=O)COC(=O)C2CCN(S(=O)(=O)c3ccc4c(c3)OCCO4)CC2)CCCCC1 | inconclusive: 37.1%
O=c1cc(-c2ccccc2Cl)oc2c([N+](=O)[O-])c(O)cc(O)c12 | inactive: -20.7%
CN(C)c1ccc(NC(=O)CSc2n[nH]c(-c3ccncc3)n2)cc1 | inconclusive: 34%
Cc1ccc(-c2cc(C(=O)N/N=C/c3c(C)nn(-c4ccccc4)c3C)[nH]n2)cc1 | inconclusive: 67.1%
COc1cccc(N2CCN(C(=O)c3ccc(CS(=O)c4ccc(C)cc4)o3)CC2)c1 (stereo not drawn) | active: 56.3%
O=C(Nc1ccccc1Br)c1ccc2nccnc2c1 | inconclusive: 35.6%
Clc1ccc(-n2nnnc2Sc2ncnc3sccc23)cc1 | active: 184%
Cc1c(C)[n+](=O)c2c(n1[O-])C(Br)CCC2Br (stereo not drawn) | inconclusive: 19.4%
CCOc1ccc(NC(=O)CN2CCN(CC(=O)Nc3cc(OC)cc(OC)c3)CC2)cc1 | inactive: 7.17%
Cc1cc(C(=O)O[C@H]2[C@H](Cc3ccccc3)NS(=O)(=O)[C@H]3C[C@@H]4C=C[C@]23O4)ccc1[N+](=O)[O-] | inconclusive: 30.3%
O=C(Nc1cc2c(cc1Br)OCCO2)c1ccc(=O)[nH]c1 | inconclusive: 22.7%
O=C(Nc1ncccc1Cl)c1cccc(F)c1 | inconclusive: 43.1%
O=C(Nc1nn[nH]n1)c1cc(-c2ccc(Cl)c(Cl)c2Cl)nc2ccccc12 | inconclusive: 47.2%
CC(=O)Nc1c(C)ccc([N+](=O)[O-])c1C | inconclusive: 32.9%
COC(=O)c1ccccc1NC(=O)Cn1c(-c2nonc2N)nc2ccccc21 | inconclusive: 37.5%
CCN(CC)S(=O)(=O)c1cccc(NC(=O)COC(=O)CCC(=O)c2cccs2)c1 | inactive: -2.24%
COc1cccc(/C=C2/SC(=S)N(CC(=O)NNC(=O)c3ccccc3O)C2=O)c1 | inconclusive: 37.6%
O=C1CC(c2ccccc2)n2ncnc2N1 (stereo not drawn) | inconclusive: 39.3%
Cn1c(CN2CCOCC2)nnc1SCC(=O)Nc1cccc(C(F)(F)F)c1 | inconclusive: 48.9%

SMILES | inhibition
Clc1ccsc1-c1csc(-c2cccnc2)n1 | inactive: 10.6%
Cc1cccc(CNS(=O)(=O)c2ccc(-c3cnc(C4CC4)o3)cc2)c1 | inconclusive: 16.4%
CC1(C)CC2CC(C)(CN2Cc2cccc([N+](=O)[O-])c2)C1 (stereo not drawn) | active: 57.2%
COc1ccc(C(CC(=O)c2ccc(C)cc2)C(C#N)C#N)cc1OC (stereo not drawn) | inconclusive: 42.3%
O=C(NCCc1ccc(Cl)cc1)Nc1ccc(F)cc1 | inactive: 22%
CCOC(=O)N1CCC2(CC1)C(C(=O)C13CC4CC(CC(C4)C1)C3)C2(C#N)C#N (stereo not drawn) | inconclusive: 42%
COc1cc(C(=O)N2CCN=C2c2ccccc2)cc(OC)c1OC | inconclusive: 49.6%
Cc1ccccc1NC(=O)c1cc(S(=O)(=O)c2ccccc2)ccc1Cl | inconclusive: 44.3%
COc1ccccc1NS(=O)(=O)c1ccc(C(=O)NCCCN2CCOCC2)cc1 | active: 89.2%
CC(=O)c1cc2c(cc1NC(=O)C1CC=CCC1C(=O)O)OCO2 (stereo not drawn) | inconclusive: 27.4%
O=c1nc(Nc2ccc(Br)cc2)sc2ccc([N+](=O)[O-])cc12 | inconclusive: 40.1%
CC(C#N)Sc1nc2ccccc2c(=O)n1-c1ccccc1 (stereo not drawn) | inconclusive: 34.6%
COc1ccc(NC(=O)CSCC(=O)N(C)CC(=O)Nc2c(C)cccc2C)cc1 | inconclusive: 22.5%
CCOC(=O)/C=c1\s/c(=C\c2c(OC)ccc3ccccc23)c(=O)n1CC(=O)NCC1CCCO1 (stereo not drawn) | inactive: 16.9%
CCCn1c(=O)c2[nH]c(-c3ccc(OCC(=O)Nc4ccc(C#N)cc4)cc3)nc2n(CCC)c1=O | active: 93.8%
Cc1cccc(Oc2nc(-c3cccc([N+](=O)[O-])c3)nc3ccccc23)c1C | inconclusive: 32.9%
O=C(Nc1cccn2ncnc12)C(F)(F)F | inconclusive: 31.2%
COC(=O)NCCOc1nc(N(C)C)nc(N(C)C)n1 | inconclusive: 43.2%
Cc1[nH]nc(SCC(=O)NC2CCCC2)c1[N+](=O)[O-] | inconclusive: 26.6%
COc1ccc(NC(=O)c2cccc(NC3=NC4CS(=O)(=O)CC4S3)c2)cc1Cl (stereo not drawn) | inconclusive: 40.1%

SMILES | inhibition
COc1ccc(/C(O)=C2\C(=O)C(=O)N(c3cc(C)on3)C2c2ccccc2OC)cc1C (stereo not drawn) | inconclusive: 29.6%
O=C(CSc1nc(O)c(C2CCCCC2)c(=O)[nH]1)Nc1ccccc1Cl | inconclusive: 49.6%
COc1ccc(-c2cc(C(F)(F)F)nc(S(=O)(=O)CCCC(=O)Nc3cccnc3Cl)n2)cc1OC | active: 115%
COc1ccc(CNC(=O)C(c2cccs2)N(C(=O)c2csnn2)C2CC2)cc1 (stereo not drawn) | inconclusive: 35.6%
CC(C)c1nc(SCC(=O)N2CCc3ccccc32)n[nH]1 | inconclusive: 46.5%
CCCCc1c(C)nc(N)[nH]c1=O | inconclusive: 39.5%
O=C(O)c1c[nH]c2ccc(F)cc2c1=O | inconclusive: 26.5%
Cc1nnc(N/N=C/c2ccccc2F)n1N | active: 59.2%
O=C(/C=C\Nc1ccc2c(c1)OCO2)c1cccs1 | active: 66.2%
CCCCNc1nc(=S)n(-c2ccccc2)c(C)c1C(C)=O | inconclusive: 30.2%
CC(=O)NCCc1nc2ccccc2n1CCOc1ccccc1 | inactive: -3.69%
CCOP(=O)(O)c1ccccc1OCCOc1ccccc1P(=O)(O)OCC | inactive: 3.18%
CCN1CCCC1CNS(=O)(=O)c1ccc(F)c(Cl)c1 (stereo not drawn) | active: 50.7%
CCOC(=O)c1c(C)[nH]c(C)c1C(=O)COC(=O)c1cccs1 | inconclusive: 36.4%
C=CCNC(=S)Nc1ccc2nc(C)c(C)nc2c1 | inconclusive: 31.1%
O=C(NCc1ccccc1)c1cccnc1 | inconclusive: 46.4%
C=CCn1c(-c2cc3c(s2)CCC(CC)C3)n[nH]c1=S (stereo not drawn) | inactive: -6.8%
CCOc1ccc(CCNC(=O)COC(=O)c2cc(OC)c(OC)cc2[N+](=O)[O-])cc1OCC | inconclusive: 33.4%

Filtered by structure, the entries above with a COOH group
SMILES | inhibition
CC(=O)c1cc2c(cc1NC(=O)C1CC=CCC1C(=O)O)OCO2 (stereo not drawn) | inconclusive: 27.4%
O=C(O)c1c[nH]c2ccc(F)cc2c1=O | inconclusive: 26.5%
